Test results reported in PMC12270673.
For at least one entry, the source does not settle the construct or the ends of the probe. Where cells or extracts were used, other partners may take part.

Test system: p65 (NF-κB subunit) + BRD4
Assay: EMSA with antibody interference (nuclear extract)
Conditions: IL-1β 5 U/ml 30 min, shifted band diminished by anti-p65 or anti-BRD4 (antibodies used separately); 4 μg nuclear lysate, 50 fmol probe; antibody preincubation 20 min at 4 °C, then probe 20 min; 4.5% native gel with 50 mM Tris pH 7.5, 0.38 M glycine, 2 mM EDTA, 0.5% TBE; protein in an extract

**Q.** Does “AGTTGAGGGGACTTTCCCAGGC (double strand) [NF-κB consensus oligonucleotide (LI-COR)]” bind?
**A.** binds
